{"source": "patent US7781592B2", "about": "“Thione derivative, method for the preparation thereof, and pharmaceutical composition containing the same” (CJ Cheiljedang Corporation, priority 2003, dated 2010)", "note": "Some entries share one result that the patent states for a list of compounds. For at least one compound, name, drawing or mass did not settle the structure.", "data": [{"molecular_target": "T1, COX-2 (Mus musculus, UniProt Q05769)", "T1 construct": "host or cells: RAW 264.7 cells, pre-treated with aspirin, then induced with interferon and LPS", "T1 sequence (Q05769 18-604)": "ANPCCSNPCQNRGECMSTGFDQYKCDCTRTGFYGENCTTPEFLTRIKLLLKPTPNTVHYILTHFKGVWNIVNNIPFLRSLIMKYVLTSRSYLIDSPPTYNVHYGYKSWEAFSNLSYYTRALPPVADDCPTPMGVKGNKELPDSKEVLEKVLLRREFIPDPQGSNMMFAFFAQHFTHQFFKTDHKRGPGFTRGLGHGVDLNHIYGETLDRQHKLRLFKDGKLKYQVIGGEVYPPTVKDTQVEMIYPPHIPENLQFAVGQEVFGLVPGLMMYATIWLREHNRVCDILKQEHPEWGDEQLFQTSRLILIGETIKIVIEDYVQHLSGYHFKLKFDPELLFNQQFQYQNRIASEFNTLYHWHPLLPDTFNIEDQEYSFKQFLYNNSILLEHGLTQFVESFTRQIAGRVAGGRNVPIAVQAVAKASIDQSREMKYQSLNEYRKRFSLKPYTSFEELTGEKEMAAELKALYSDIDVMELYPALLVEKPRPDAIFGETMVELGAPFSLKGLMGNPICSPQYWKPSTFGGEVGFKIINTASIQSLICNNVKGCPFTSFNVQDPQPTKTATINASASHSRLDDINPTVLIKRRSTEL", "test": "Assay for the COX-2 inhibitory activity using Raw 264.7 cell line (PGE2 inhibition)", "type": "cell-based", "conditions": "COX-2 at 30 nM versus COX-1 at 1 μM; compared with reference Valdecoxib", "experimental": "Each well was treated with 250 μM of aspirin and incubated at 37° C. for 2 hours. After the culture media were replaced with new culture media, the new culture media were treated with a test compound (30 nM) and incubated for 30 minutes. Then, each well was treated with interferon ? (100 units/ml) and lipopolysaccharide (LPS, 100 ng/ml) and incubated for 18 hours. The culture media were transferred to other test tubes. The concentration of PGE2 was quantified by means of the EIA kit (Cayman Chemicals).\nThe percentages of the COX inhibition were calculated according to the following equation: % Inhibition=(concentration of PGE2 in test compound-untreated sample−concentration of PGE2 in test compound-treated sample)/(concentration of PGE2 in test compound-untreated sample)×100", "values": [{"smiles": "Cc1ccc(-c2c(-c3ccc(F)c(F)c3)ssc2=S)cc1", "note": "[Example 74, 5-(3,4-difluorophenyl)-4-p-toryl-[1,2]dithiol-3-thione]", "inhibition (%) ratios of COX-2 to COX-1": "significantly higher than that in the reference, Valdecoxib"}, {"smiles": "COc1ccc(-c2c(-c3ccc(F)c(F)c3)ssc2=S)cc1", "note": "[Example 75, 5-(3,4-difluorophenyl)-4-(4-methoxyphenyl)-[1,2]dithiol-3-thione]", "inhibition (%) ratios of COX-2 to COX-1": "significantly higher than that in the reference, Valdecoxib"}, {"smiles": "CC(=O)Oc1ccc(-c2c(-c3ccc(F)c(F)c3)ssc2=S)cc1", "note": "[Example 76, Acetic acid 4-[5-(3,4-difluorophenyl)-3-thioxo-3H-[1,2]dithiol-4-yl]-phenyl ester]", "inhibition (%) ratios of COX-2 to COX-1": "significantly higher than that in the reference, Valdecoxib"}, {"smiles": "COc1ccc(-c2c(-c3ccc(S(C)(=O)=O)c(F)c3)ssc2=S)cc1", "note": "[Example 78, 5-(3-fluoro-4-methanesulfonylphenyl)-4-(4-methoxyphenyl)-[1,2]dithiol-3-thione]", "inhibition (%) ratios of COX-2 to COX-1": "significantly higher than that in the reference, Valdecoxib"}, {"smiles": "CC(=O)Oc1ccc(-c2c(-c3ccc(S(C)(=O)=O)c(F)c3)ssc2=S)cc1", "note": "[Example 79, Acetic acid 4-[5-(3-fluoro-4-methanesulfonylphenyl)-3-thioxo-3H-[1,2]dithiol-4-yl]-phenyl ester]", "inhibition (%) ratios of COX-2 to COX-1": "significantly higher than that in the reference, Valdecoxib"}, {"smiles": "CS(=O)(=O)c1ccc(-c2[nH][nH]c(=S)c2-c2ccc(Cl)c(Cl)c2)cc1", "note": "[Example 81, 4-(3,4-dichlorophenyl)-5-(4-methanesulfonylphenyl)-1,2-dihydropyrazole-3-thione]", "inhibition (%) ratios of COX-2 to COX-1": "significantly higher than that in the reference, Valdecoxib"}, {"smiles": "CS(=O)(=O)c1ccc(-c2[nH][nH]c(=S)c2-c2ccc(Cl)cc2)cc1", "note": "[Example 82, 4-(4-chlorophenyl)-5-(4-methanesulfonylphenyl)-1,2-dihydropyrazole-3-thione]", "inhibition (%) ratios of COX-2 to COX-1": "significantly higher than that in the reference, Valdecoxib"}]}]}
